Results on 60 compounds are retold here after PubChem BioAssay AID2685 (National Center for Advancing Translational Sciences (NCATS), 2010).

This is one part of the list. Shown are side measurements of this screen, not its main read-out; they come without a call. Most of these compounds were active or inconclusive in the main read-out, so they are no random draw. Words in brackets tell the shape of the fitted curve; partial curves, single points and poor fits give uncertain potencies.

The nature of this assay: qHTS Assay for Lipid Storage Modulators in Drosophila S3 Cells.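 On cell number change: cells counted by Cell Tracker Red CMTPX staining in the red channel.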 The conditions noted are these: BODIPY lipid droplet fluorescence, 18-24 h; for cell number change: measured here: cell count max response, cells fed with added oleic acid. The method, boiled down: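 Laser-scanning cytometry quantifies lipid droplet accumulation (500–530 nm total intensity; droplet/cell object ratio) in oleic acid-fed (400 uM added) Drosophila S3 cells treated with a concentration series. 20 uM Triacsin C defined 100% inhibition.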
(In general: In qHTS, concentration-response curves come from the screen itself.)

[1] abbreviates: measured here: cell number channel AC50, cells fed with added oleic acid.
[2] abbreviates: measured here: lipid fluorescence (Fed channel) AC50, cells fed with added oleic acid.

One may read the AC50 as the concentration giving half of the maximal activity seen. Lower therefore signals activity at low concentration. For `Cc1ccc(-c2nc(-c3cccnc3)no2)c(C)c1`, the AC50 under setting [1] was 6.51 µM [rising, single point].

In the case of `CCn1c(SCC(=O)Nc2ccccc2F)nnc1-c1ccoc1C`, the cell number change was found to be 6.41%.

On to `O=C(COC(=O)c1ccc(O)cc1)Nc1cccc(S(=O)(=O)NC2=NCCC2)c1`, for which the cell number change was -11.2%. Further, the AC50 under setting [2] is 0.461 µM [rising, single point].

Take `O=[N+]([O-])c1[nH]cnc1/C=C/c1ccccc1`: the AC50 under setting [1] is 0.731 µM [falling, full curve].

For the compound `COc1ccc(CCN(C)C(=O)COc2ccc(C(=O)c3ccccc3)cc2)cc1OC`, the cell number change was 6.81%. Moreover, the AC50 under setting [1] was 2.59 µM [rising, single point]. Also, the AC50 under setting [2] was 3.26 µM [rising, single point].

With `CCN(CC)CCn1c2c(c(SCC(=O)Nc3nc(C)cs3)nc1=O)CCC2`, the cell number change was determined as 1.2%. Moreover, the AC50 under setting [2] was 0.731 µM [falling, single point].

In the case of `CCOC(=O)C1CCN(C(=O)Cn2cnc3sc(C)c(S(=O)(=O)N4CCCCC4)c3c2=O)CC1`, the cell number change came to 8.56%. Also, the AC50 under setting [2] is 0.58 µM [rising, single point].

Regarding `CC(OC(=O)c1ccc(S(=O)(=O)N2CCCCC2)cc1)C(=O)NC1CCCCC1C` (stereo not given), the cell number change is 51%. Also, the AC50 under setting [1] was 29.1 µM [rising, single point].

With `Cc1ccc(NS(=O)(=O)c2ccc(NC(=O)CSc3ccc(Cl)cc3)cc2)c(C)c1`, the cell number change worked out at 1.84%. Also, the AC50 under setting [2] was 14.6 µM [falling, partial curve, poor fit].

Consider `Cc1cc(C)cc(NC(=S)NCCc2ccc(S(N)(=O)=O)cc2)c1`, for which the cell number change was determined as 6.9%. The AC50 under setting [1] is 2.91 µM [rising, single point]. For the same compound, under setting [2], the AC50 was 0.00461 µM [falling, full curve, poor fit].

`Cc1ccc(SCc2nnc(NC(=O)c3ccccc3)s2)cc1`: the cell number change was 133%. For the same compound, the AC50 under setting [1] is 14.6 µM [rising, partial curve].

For `COc1ccc(C(=O)Nc2ccccc2C(=O)N/N=C/c2ccco2)cc1`, the cell number change is 1.96%. The AC50 under setting [2] was 3.26 µM [rising, partial curve].

For `Oc1ccc(/C=N/n2c(-c3ccccc3)n[nH]c2=S)cc1`, the cell number change is -8.39%. The AC50 under setting [2] was 0.13 µM [rising, full curve, poor fit].

As for `CCN1CCN(S(=O)(=O)c2cccs2)CC1`, the cell number change is -30.4%. For the same compound, under setting [1], the AC50 was 1.84 µM [falling, full curve, poor fit].

`O=C(Nc1cccnc1)/C(N=Nc1ccc(Cl)c(C(F)(F)F)c1)=C(\O)c1ccccc1`: the cell number change was -49.3%. Moreover, the AC50 under setting [1] is 29.1 µM [falling, single point]. The AC50 under setting [2] is 2.31 µM [rising, partial curve].

In the case of `COc1cccc(C(=O)NC(=S)N2CCN(c3ccc(C(F)(F)F)cc3[N+](=O)[O-])CC2)c1`, the cell number change worked out at 6.88%. Besides, the AC50 under setting [2] was 29.1 µM [rising, single point].

As to `Cc1ccc(Cl)cc1NC(=O)CN1C(=O)COc2ccc(S(=O)(=O)N3CCOCC3)cc21`, the cell number change was -3.62%.

As to `Cn1c(C(=O)c2ccccc2[N+](=O)[O-])nc2ccccc21`, the cell number change was -19.1%.

Turning to `COc1cccc(NC(=O)Cc2cn(C)c3ccccc23)c1`, the cell number change is -5.28%. The AC50 under setting [2] is 0.92 µM [rising, full curve, poor fit].

Take `COc1ccc(CCN=C(C)C2=C(O)C(c3ccccc3)OC2=O)cc1OC` (stereo not given): the cell number change came to 36.2%. Moreover, under setting [1], the AC50 is 5.8 µM [rising, full curve, poor fit]. Also, the AC50 under setting [2] is 6.51 µM [rising, full curve].

Turning to `CC1Sc2ccc(C(=O)O)cc2NC1=O` (stereo not given), the cell number change was -21.3%. For the same compound, the AC50 under setting [2] was 29.1 µM [falling, single point].

`COc1ccc(OC)c(NC(=O)CN2C(=O)C(C)N(c3ccc(C)cc3)C2=O)c1` (stereo not given): the cell number change stood at 0.669%. Moreover, under setting [2], the AC50 is 18.4 µM [falling, single point].

Consider `Cc1snc(SCC(=O)c2ccc(F)cc2)c1C#N`, for which the cell number change is -2.35%.

Regarding `Cc1ccc(C)c(S(=O)(=O)NC(C)C(=O)Nc2ccc(-c3nc4ccccc4s3)cc2)c1` (stereo not given), the cell number change is -12.9%.

Regarding `NC(=O)c1ccc(NC(=O)Cc2csc(-c3ccccc3)n2)cc1`, the cell number change was -5.1%. Besides, under setting [1], the AC50 was 3.26 µM [falling, partial curve]. Further, the AC50 under setting [2] is 0.0517 µM [falling, full curve, poor fit].

Take `C=CCNC(=O)CSc1ccc(Cl)cc1`: the cell number change is -83.6%. Further, under setting [1], the AC50 was 2.59 µM [falling, full curve].

For the compound `COCCCNC(=O)Cc1c(C)c2c(cc(C)c3c(C)c(C)oc32)oc1=O`, the cell number change is 6.94%. For the same compound, the AC50 under setting [2] is 0.58 µM [falling, single point].

Regarding `Cc1ccc(O)c(CNc2cccc3cccnc23)c1`, the cell number change is -41.4%. Also, the AC50 under setting [2] was 1.16 µM [falling, full curve].

With `Cc1cccc(/C(N)=N/OC(=O)c2ccco2)c1`, the cell number change was found to be 14.3%.

Regarding `COCCn1c(SCc2cnc(-c3ccccc3)s2)nnc1-c1ccncc1`, the cell number change is -25.8%.

As for `NS(=O)(=O)c1ccc(CCNC(=O)C(=O)NCC2OCCN2S(=O)(=O)c2cc(F)ccc2F)cc1` (stereo not given), the cell number change was found to be 9.22%. For the same compound, under setting [2], the AC50 is 29.1 µM [rising, single point].

For `C/C(=N\NC(=O)c1ccncc1)c1ccc(N2CCOCC2)cc1`, the cell number change is 30.4%. Besides, the AC50 under setting [1] is 29.1 µM [rising, single point]. Besides, the AC50 under setting [2] is 18.4 µM [rising, single point].

Take `Cc1ccc(C(=O)CSc2ccc(-c3cccnc3)nn2)cc1`: the cell number change was determined as 28.5%. In addition, the AC50 under setting [2] is 20.6 µM [rising, single point].

As to `Nc1nc(Br)c2ccccc2c1-c1ccc(F)cc1`, the cell number change amounted to 14.7%.

As for `O=C(O)c1nccnc1C(=O)NCc1csc2ccc(Cl)cc12`, the cell number change was -15.9%. In addition, the AC50 under setting [2] was 6.51 µM [rising, single point].

For `Cc1cccc(C(=O)OC2CCOC2=O)c1C` (stereo not given), the cell number change is -7.94%. For the same compound, the AC50 under setting [2] was 4.11 µM [rising, full curve].

On to `Cc1cc(CNC(=O)Cn2nc(C)c([N+](=O)[O-])c2C)c2ccccc2n1`, for which the cell number change is -30.8%. Further, the AC50 under setting [1] is 1.64 µM [falling, partial curve]. In addition, the AC50 under setting [2] was 4.11 µM [rising, single point].

Consider `CC(C)(C)OC(=O)NCc1ccc(CNC(=O)c2nc[nH]c2C(=O)NCc2ccccc2)cc1`, for which the cell number change was -45.2%. Besides, the AC50 under setting [1] is 0.731 µM [falling, partial curve]. For the same compound, the AC50 under setting [2] was 0.461 µM [falling, full curve, poor fit].

With `CC(=O)C1=C(O)C(=O)N(Cc2cccnc2)C1c1ccccc1Cl` (stereo not given), the cell number change was determined as 0.673%. Besides, the AC50 under setting [1] is 0.164 µM [rising, full curve, poor fit]. For the same compound, the AC50 under setting [2] is 0.116 µM [falling, full curve, poor fit].

`O=C1CC(N(CCc2ccccc2)C(=S)Nc2ccccc2)C(=O)N1c1ccc(Br)cc1` (stereo not given): the cell number change was -27.6%. Further, the AC50 under setting [2] was 13 µM [falling, partial curve].

As to `CCn1c(O)c(/C=C2\C=Nc3ccccc32)sc1=Nc1ccc(C)cc1`, the cell number change was -37.5%. Besides, the AC50 under setting [1] is 16.4 µM [falling, single point]. Further, the AC50 under setting [2] is 14.6 µM [falling, single point].

For `CC(C)CCNC(=O)CN(CC1CCCO1)C(=O)CCC(=O)Nc1ccccn1` (stereo not given), the cell number change was -15.6%. The AC50 under setting [2] was 0.116 µM [rising, full curve, poor fit].

Turning to `CCOC(=O)C(=N/O)/C(C)=N/NC(=O)C(=O)Nc1ccc(Cl)cc1`, the cell number change was -19.3%. Also, the AC50 under setting [2] is 20.6 µM [falling, single point].

As for `Cc1ccc(NCc2ccc(C)s2)cc1`, the cell number change is -17.5%. Also, the AC50 under setting [2] was 0.164 µM [rising, full curve, poor fit].

Consider `Cc1csc2ncc(C(=O)NC(C)c3ccccc3)c(=O)n12` (stereo not given), for which the cell number change amounted to 62.5%. Under setting [1], the AC50 is 1.64 µM [rising, partial curve]. In addition, under setting [2], the AC50 is 1.46 µM [rising, partial curve].

On to `COc1ccc(NC(=O)CCCN(C)S(=O)(=O)c2ccc(C)cc2)cc1`, for which the cell number change was -4.66%. Under setting [1], the AC50 was 0.13 µM [falling, full curve, poor fit].

On to `COc1ccc(NC(=O)COC(=O)CCOc2ccccc2C)cc1Cl`, for which the cell number change was -15.2%.

In the case of `CN(C)CCNC(=O)/C(=C/c1ccc(-c2cccc(Cl)c2)o1)NC(=O)c1ccccc1`, the cell number change amounted to 7.11%.

Regarding `COc1ccc(-n2c(SCC(=O)Nc3nccs3)nnc2-c2ccccc2)cc1`, the cell number change stood at 36.6%. Also, the AC50 under setting [1] was 0.326 µM [rising, partial curve, poor fit]. The AC50 under setting [2] was 2.91 µM [rising, partial curve].

As for `CCOC(=O)c1c(C)[nH]c(C(=O)OC/C(O)=C(\C#N)c2nc3ccccc3[nH]2)c1C`, the cell number change is -60.4%. The AC50 under setting [1] is 20.6 µM [falling, partial curve].

As for `CC/C(=N\NC(=O)Nc1nonc1N)c1ccc(OC)c(OC)c1`, the cell number change was -5.66%. Further, the AC50 under setting [2] is 6.51 µM [rising, single point].

Take `CCN(CC)CCCNC(=O)c1cc2c(-c3ccc(Cl)cc3)nn(C)c2s1`: the AC50 by setting is: under setting [1], 2.06 µM [rising, partial curve]; under setting [2], 6.51 µM [rising, partial curve].

Regarding `Cc1ccc(S(=O)(=O)c2cc3c(=O)n4ccccc4nc3n(Cc3ccco3)c2=N)cc1`, the cell number change is -15.2%. Under setting [2], the AC50 was 0.259 µM [rising, full curve].

Consider `COc1ccccc1C1CC(c2ccccc2)Nc2ncnn21` (stereo not given), for which the cell number change is -20.6%.

On to `Cc1cccc2c(C(=O)O)cc(-c3cccnc3)nc12`, for which the cell number change was -34.7%. Further, the AC50 under setting [1] is 0.58 µM [falling, full curve]. The AC50 under setting [2] is 0.58 µM [falling, full curve].

As for `O=C(COc1ccccc1Br)NCCc1nc2ccccc2[nH]1`, the cell number change stood at 8.46%. Moreover, under setting [1], the AC50 is 0.231 µM [falling, full curve, poor fit].

For the compound `Cc1ccc(NC(=O)CC(=O)Nc2ccc(C)cc2)cc1`, the cell number change was -8.96%.

Turning to `Cc1cccc(C)c1NC(=O)CNC(=O)c1c(C)nn(-c2ccccc2)c1C`, the cell number change is 2.93%. Further, the AC50 under setting [2] is 29.1 µM [rising, single point].

Turning to `CCCCc1ccc(S(=O)(=O)NNC(=S)NCc2ccco2)cc1`, the cell number change was -26.8%. For the same compound, the AC50 under setting [1] is 0.461 µM [falling, full curve, poor fit]. Moreover, the AC50 under setting [2] was 0.259 µM [falling, full curve].

Turning to `CCn1nc(C)c(C2C(C#N)=C(N)Oc3n[nH]c(C)c32)c1C` (stereo not given), the cell number change was -6.13%. Further, the AC50 under setting [2] was 0.731 µM [falling, full curve, poor fit].
